Results on 1 substance are retold here after publication PMC7500022.

By UniProt entry, the sequences of proteins in these tests, tags left out.
UniProt P07356: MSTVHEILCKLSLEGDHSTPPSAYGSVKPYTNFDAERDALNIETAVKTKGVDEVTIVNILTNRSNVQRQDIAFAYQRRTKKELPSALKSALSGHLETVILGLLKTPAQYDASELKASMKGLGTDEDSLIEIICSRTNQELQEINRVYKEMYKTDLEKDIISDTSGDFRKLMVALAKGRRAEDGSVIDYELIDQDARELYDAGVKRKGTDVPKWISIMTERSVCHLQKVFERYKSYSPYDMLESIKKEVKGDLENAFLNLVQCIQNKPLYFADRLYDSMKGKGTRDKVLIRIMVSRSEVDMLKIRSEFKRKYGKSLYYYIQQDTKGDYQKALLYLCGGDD

These are yes or no findings as the source states them, for the method shown. Binding seen in cells or lysates may run through a third protein. A yes stands for co-enrichment or nearness to the bait. Other partners may have been found. Sequences can lack the tags named with a protein.

The target of the experiment is T1, Flag-tagged FOXQ1 protein (Forkhead box Q1) (UniProt O70220).
T1 sequence: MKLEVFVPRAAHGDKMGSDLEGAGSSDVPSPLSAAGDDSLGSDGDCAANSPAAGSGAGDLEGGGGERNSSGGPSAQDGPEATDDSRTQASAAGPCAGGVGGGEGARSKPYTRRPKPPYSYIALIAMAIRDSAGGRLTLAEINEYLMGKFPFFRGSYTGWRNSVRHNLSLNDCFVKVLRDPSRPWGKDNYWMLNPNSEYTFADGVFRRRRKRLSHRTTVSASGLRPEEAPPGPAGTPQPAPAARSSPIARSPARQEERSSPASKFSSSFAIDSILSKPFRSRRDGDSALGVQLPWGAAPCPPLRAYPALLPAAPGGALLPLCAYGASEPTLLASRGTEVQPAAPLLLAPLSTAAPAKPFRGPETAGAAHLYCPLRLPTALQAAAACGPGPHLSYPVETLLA
As to the kind of experiment: affinity purification with mass spectrometry; anti-FLAG antibody coupled to resin (Pierce co-IP kit), incubated overnight at 4 °C with 200 μL total protein lysate of mBMSCs (Foxq1-over and lv5) transfected with Flag-tagged Foxq1; eluate analysed by LC-MS (TripleTOF 5600-Plus, ProteinPilot).

Consider “Annexin A2 (ANXA2) (from UniProt P07356 1-339)”, for which the binding entry is “binds”.
